Measurements from US20240358735A1, “THERAPEUTIC COMPOSITIONS AND RELATED METHODS” (BOYCE THOMPSON INSTITUTE FOR PLANT RESEARCH, INC., priority 2021, published 2024).

These molecules were tested on Cbr-cest-2 mutants (assay: Comparative metabolomics (HPLC-HRMS) of Cbr-cest-2 mutants versus wildtype C. briggsae (AF16)). Details: abundance of the metabolite in Cbr-cest-2 mutants compared to C. briggsae wildtype (AF16).

Point of comparison: `C/C=C(\C)C(=O)OCC1OC(OC(=O)c2cccnc2)C(OC(=O)c2cccnc2)C(OP(=O)(O)O)C1O` (stereo not shown) [nglu#5], “Cbr-cest-2 fold over WT (AF16), average of 4 repeats” value 0.004546. Against it:
- Nc1ccccc1C(=O)OC[C@H]1O[C@@H](OC(=O)c2ccccc2N)[C@H](OC(=O)Cc2ccccc2)[C@@H](OP(=O)(O)O)[C@@H]1O [angl#56] — lower, 0.0004587
- C/C=C(\C)C(=O)O[C@H]1[C@H](Oc2ccc(CCN)cc2)O[C@H](COC(=O)c2ccc[nH]2)[C@@H](O)[C@@H]1OP(=O)(O)O [tyglu#20] — lower, 0.0006708
- Nc1ccccc1C(=O)OCC1OC(n2ccc3ccccc32)C(OC(=O)c2ccccc2)C(OP(=O)(O)O)C1O (stereo not shown) [iglu#66] — higher, 0.01239
- Nc1ccccc1C(=O)O[C@@H]1O[C@H](CO)[C@@H](O)[C@H](OP(=O)(O)O)[C@H]1OC(=O)c1ccccc1 [angl#161] — higher, 0.004934
- Nc1ccccc1C(=O)O[C@@H]1O[C@H](COC(=O)c2cccnc2)[C@@H](O)[C@H](OP(=O)(O)O)[C@H]1OC(=O)c1ccc[nH]1 [angl#24] — lower, 0.00008011
- C/C=C(\C)C(=O)OCC1OC(OC(=O)c2cccnc2)C(OC(=O)c2ccccc2)C(OP(=O)(O)O)C1O (stereo not shown) [nglu#4] — higher, 0.007247
- NCCc1ccc(OC2OC(COC(=O)c3ccccc3N)C(O)C(OP(=O)(O)O)C2OC(=O)C(N)Cc2ccccc2)cc1 (stereo not shown) [tyglu#42] — lower, 0.0001883
- Nc1ccccc1C(=O)OC[C@H]1O[C@@H](n2ccc3ccccc32)[C@H](OC(=O)c2ccc[nH]2)[C@@H](OP(=O)(O)O)[C@@H]1O [iglu#57] — higher, 0.006393
- NCC(O)c1ccc(C[C@@H]2O[C@H](COC(=O)c3ccccc3N)[C@@H](O)[C@H](OP(=O)(O)O)[C@H]2OC(=O)c2cccnc2)cc1 (stereo partly shown) [oglu#15] — lower, 0.003824
- CC(O)CC(=O)OC[C@H]1O[C@@H](CC(=O)c2ccccc2N)[C@H](OC(=O)c2ccccc2N)[C@@H](OP(=O)(O)O)[C@@H]1O (stereo partly shown) [angl#44] — lower, 0.0006083
- CCC(O)C(=O)OC[C@H]1O[C@@H](n2ccc3ccccc32)[C@H](OC(=O)c2ccccc2N)[C@@H](OP(=O)(O)O)[C@@H]1O (stereo partly shown) [iglu#48] — lower, 0.002595
- C/C=C(\C)C(=O)O[C@@H]1[C@@H](CP(=O)(O)O)[C@H](O)[C@@H](CO)O[C@H]1n1ccc2ccccc21 [iglu#801] — lower, 8.69E−05
- NCCc1ccc(O[C@@H]2O[C@H](COC(=O)c3ccccc3N)[C@@H](O)[C@H](OP(=O)(O)O)[C@H]2OC(=O)c2ccccc2)cc1 [tyglu#16] — lower, 0.00004669
- O=C(O[C@@H]1[C@@H](OP(=O)(O)O)[C@H](O)[C@@H](COC(=O)c2ccc[nH]2)O[C@H]1n1ccc2ccccc21)c1cccnc1 [iglu#40] — lower, 0.002191
- NCCc1ccc(O[C@@H]2O[C@H](COC(=O)c3cccnc3)[C@@H](O)[C@H](OP(=O)(O)O)[C@H]2OC(=O)c2ccccc2)cc1 [tyglu#28] — higher, 0.009783
- Nc1ccccc1C(=O)OC[C@H]1O[C@@H](NCCc2ccc(O)cc2)[C@H](OC(=O)c2ccccc2N)[C@@H](OP(=O)(O)O)[C@@H]1O [tyglu#4] — lower, 0.00001992
- Nc1ccccc1C(=O)O[C@@H]1O[C@H](COC(=O)c2cccnc2)[C@@H](O)[C@H](OP(=O)(O)O)[C@H]1O [angl#10] — lower, 0.0001569
- CC(C)CC(=O)O[C@@H]1[C@@H](OP(=O)(O)O)[C@H](O)[C@@H](CO)O[C@H]1n1ccc2ccccc21 [iglu#141] — lower, 0.0001793
- NCCc1ccc(O[C@@H]2O[C@H](COC(=O)/C=C/c3c[nH]cn3)[C@@H](O)[C@H](OP(=O)(O)O)[C@H]2OC(=O)c2ccccc2N)cc1 [tyglu#38] — lower, 0.001217
- CCC(=O)OC1C(OP(=O)(O)O)C(O)C(COC(=O)c2cccnc2)OC1n1ccc2ccccc21 (stereo not shown) [iglu#21] — lower, 0.00222
- Cn1c(N)nc2c(ncn2C2OC(COC(=O)c3ccccc3)C(O)C(OP(=O)(O)O)C2OC(=O)c2ccccc2)c1=O (stereo not shown) [mgglu#6] — lower, 0.0002185
- O=C(/C=C/c1c[nH]cn1)OC[C@H]1O[C@@H](n2ccc3ccccc32)[C@H](OC(=O)c2ccccc2)[C@@H](OP(=O)(O)O)[C@@H]1O [iglu#70] — higher, 0.01157
- O=C(O[C@H]1[C@H](OC(=O)c2ccc[nH]2)O[C@H](CO)[C@@H](O)[C@@H]1OP(=O)(O)O)c1ccccc1 [pyglu#201] — lower, 0.004462
- O=C(O[C@@H]1[C@@H](OP(=O)(O)O)[C@H](O)[C@@H](CO)O[C@H]1n1ccc2ccccc21)c1ccccn1 [iglu#601] — higher, 0.00961
- C/C=C(\C)C(=O)OC1C(OP(=O)(O)O)C(O)C(COC(=O)c2ccccc2)OC1n1ccc2ccccc21 (stereo not shown) [iglu#28] — higher, 0.01957
- CCC(=O)OC[C@H]1O[C@@H](n2ccc3ccccc32)[C@H](OC(=O)c2ccccc2N)[C@@H](OP(=O)(O)O)[C@@H]1O [iglu#24] — higher, 0.008043
- C/C=C(\C)C(=O)OC1C(Oc2ccc(CCN)cc2)OC(COC(=O)c2ccccc2)C(O)C1OP(=O)(O)O (stereo not shown) [tyglu#26] — higher, 0.01521
- O=C(C[C@@H]1O[C@H](COC(=O)c2cccnc2)[C@@H](O)[C@H](OP(=O)(O)O)[C@H]1OC(=O)c1cccnc1)c1ccccc1 [bzglu#6] — lower, 0.003133
- Nc1ccccc1C(=O)OC[C@H]1O[C@@H](OC(=O)c2ccccc2N)[C@H](OC(=O)c2ccccc2N)[C@@H](OP(=O)(O)O)[C@@H]1O [angl#36] — lower, 1.99E−05
- CCCC(=O)OC[C@H]1O[C@@H](n2ccc3ccccc32)[C@H](OC(=O)c2cccnc2)[C@@H](OP(=O)(O)O)[C@@H]1O [iglu#92] — lower, 0.001118
- O=C(C[C@@H]1O[C@H](COC(=O)c2ccc[nH]2)[C@@H](O)[C@H](OP(=O)(O)O)[C@H]1OC(=O)c1ccc[nH]1)c1ccccc1 [bzglu#9] — lower, 0.00368
- NCCc1ccc(O[C@@H]2O[C@H](COC(=O)c3ccccc3N)[C@@H](O)[C@H](OP(=O)(O)O)[C@H]2OC(=O)Cc2ccccc2)cc1 [tyglu#12] — lower, 0.0002367
- Nc1ccccc1C(=O)O[C@@H]1O[C@H](COC(=O)c2ccc[nH]2)[C@@H](O)[C@H](OP(=O)(O)O)[C@H]1OC(=O)c1cccnc1 [angl#23] — lower, 0.00139
- CCC/C=C/C(=O)OCC1OC(OC(=O)c2cccnc2)C(OC(=O)c2cccnc2)C(OP(=O)(O)O)C1O (stereo not shown) [nglu#9] — lower, 0.001272
- Nc1ccccc1C(=O)OC[C@H]1O[C@@H](n2ccc3ccccc32)[C@H](OC(=O)c2ccccc2N)[C@@H](CP(=O)(O)O)[C@@H]1O [iglu#74] — lower, 4.29E−05
- CCC(=O)O[C@H]1[C@H](OC(=O)c2ccccc2N)O[C@H](CO)[C@@H](O)[C@@H]1OP(=O)(O)O [angl#12] — lower, 0.001398
- Nc1ccccc1C(=O)O[C@@H]1O[C@H](COC(=O)c2cccnc2)[C@@H](O)[C@H](OP(=O)(O)O)[C@H]1OC(=O)c1ccccc1 [angl#27] — lower, 3.68E−05
- O=C(Cc1ccccc1)O[C@@H]1[C@@H](OP(=O)(O)O)[C@H](O)[C@@H](CO)O[C@H]1n1ccc2ccccc21 [iglu#16] — lower, 0.001912
- NCCc1ccc(O[C@@H]2O[C@H](COC(=O)c3ccc[nH]3)[C@@H](O)[C@H](OP(=O)(O)O)[C@H]2OC(=O)c2cccnc2)cc1 [tyglu#30] — lower, 0.002985
- C/C=C(\C)C(=O)OC[C@H]1O[C@@H](OC(=O)c2ccc[nH]2)[C@H](OC(=O)c2ccccc2)[C@@H](OP(=O)(O)O)[C@@H]1O [pyglu#4] — lower, 0.003757
- Nc1ccccc1C(=O)O[C@@H]1O[C@H](CO)[C@@H](O)[C@H](OP(=O)(O)O)[C@H]1OC(=O)c1ccccc1N [angl#401] — lower, 0.0005262
- CC(C)CC(=O)O[C@H]1[C@H](Oc2ccc(CCN)cc2)O[C@H](COC(=O)c2ccccc2N)[C@@H](O)[C@@H]1OP(=O)(O)O [tyglu#14] — higher, 0.005027
- Nc1ccccc1C(=O)OCC1OC(n2ccc3ccccc32)C(OC(=O)Cc2ccccc2)C(OP(=O)(O)O)C1O (stereo not shown) [iglu#72] — lower, 0.001815
- C/C=C(\C)C(=O)OCC1OC(OC(=O)c2cccnc2)C(OC(=O)c2cccnc2)C(OP(=O)(O)O)C1O (stereo not shown) [nglu#6] — higher, 0.01336
- CCCCCCCCCCCC(=O)O[C@H]1[C@H](OC(=O)c2ccccc2N)O[C@H](COC(=O)c2ccccc2N)[C@@H](O)[C@@H]1OP(=O)(O)O [angl#41] — lower, 0.0004091
- Nc1ccccc1C(=O)C[C@@H]1O[C@H](COC(=O)Cc2ccc(O)cc2)[C@@H](O)[C@H](OP(=O)(O)O)[C@H]1OC(=O)c1ccccc1N [angl#50] — lower, 0.0001897
- CC(C)CC(=O)OCC1OC(OC(=O)c2cccnc2)C(OC(=O)Cc2ccccc2)C(OP(=O)(O)O)C1O (stereo not shown) [nglu#10] — higher, 0.005458
- NCCc1ccc(O[C@@H]2O[C@H](COC(=O)c3ccccc3N)[C@@H](O)[C@H](OP(=O)(O)O)[C@H]2OC(=O)c2ccccn2)cc1 [tyglu#6] — lower, 0.00005252
